Assay results taken from PMC4985585.
No constants are given. Whether binding was seen depends on the method and setting. In cells and extracts the contact can be indirect. A yes stands for co-enrichment or nearness to the bait. Other partners may have been found.

Sequences of proteins named here, by UniProt entry; tags and fusion partners are left off.
UniProt Q9ERK7: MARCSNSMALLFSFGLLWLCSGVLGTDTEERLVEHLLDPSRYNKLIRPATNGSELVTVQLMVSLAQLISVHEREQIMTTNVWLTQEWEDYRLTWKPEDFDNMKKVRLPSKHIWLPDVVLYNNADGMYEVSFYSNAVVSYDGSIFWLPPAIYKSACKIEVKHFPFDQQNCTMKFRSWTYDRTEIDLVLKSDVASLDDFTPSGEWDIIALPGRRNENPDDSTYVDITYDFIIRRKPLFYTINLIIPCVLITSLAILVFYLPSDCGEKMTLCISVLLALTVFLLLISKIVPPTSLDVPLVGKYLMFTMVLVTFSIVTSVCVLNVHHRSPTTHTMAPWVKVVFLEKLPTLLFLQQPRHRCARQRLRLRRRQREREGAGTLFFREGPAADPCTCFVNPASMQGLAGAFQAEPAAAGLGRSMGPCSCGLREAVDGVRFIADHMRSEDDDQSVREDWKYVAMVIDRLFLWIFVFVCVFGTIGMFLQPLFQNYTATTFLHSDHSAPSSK

B1: Myosin light polypeptide 6 (mouse) (protein, UniProt Q60605 1-151)
chain: MCDFTEDQTAEFKEAFQLFDRTGDGKILYSQCGDVMRALGQNPTNAEVLKVLGNPKSDEMNVKVLDFEHFLPMLQTVAKNKDQGTYEDYVEGLRVFDKEGNGTVMGAEIRHVLVTLGEKMTEEEVEMLVAGHEDSNGCINYEAFVRHILSG
B2: NADH dehydrogenase [ubiquinone] 1 β subcomplex subunit 3 (mouse) (protein, UniProt Q9CQZ6 1-104)
chain: MAAGHGHEHGHEHGHGHGKMELPDYRQWKIEGTPLETVQKKLAARGLRDPWARNEAWRYMGGFAGNITFPSVILKGFKWGFAAFVVALGAEYFLDSQNGDKKHH
B3: Mito 2-oxoglutarate/malate carrier protein (mouse) (protein, UniProt Q9CR62 1-314)
chain: MAATASPGAGRMDGKPRTSPKSVKFLFGGLAGMGATVFVQPLDLVKNRMQLSGEGAKTREYKTSFHALTSILKTEGLKGIYTGLSAGLLRQATYTTTRLGIYTVLFERLTGADGTPPGFLLKALIGMTAGATGAFVGTPAEVALIRMTADGRLPADQRRGYKNVFNALVRIAREEGVPTLWRGCIPTMARAVVVNAAQLASYSQSKQFLLDSGYFSDNILCHFCASMISGLVTTAASMPVDIVKTRIQNMRMIDGKPEYKNGLDVLLKVVRYEGFFSLWKGFTPYYARLGPHTVLTFIFLEQMNKAYKRLFLSG
B4: Phosphate carrier protein, mito (mouse) (protein, UniProt Q8VEM8 46-357)
chain: AVEEYSCEFGSMKYYALCGFGGVLSCGLTHTAVVPLDLVKCRMQVDPQKYKGIFNGFSITLKEDGVRGLAKGWAPTLIGYSMQGLCKFGFYEVFKALYSNILGEENTYLWRTSLYLASSASAEFFADIALAPMEAAKVRIQTQPGYANTLREAVPKMYKEEGLNAFYKGVAPLWMRQIPYTMMKFACFERTVEALYKFVVPKPRSECTKAEQLVVTFVAGYIAGVFCAIVSHPADSVVSVLNKEKGSTASQVLQRLGFRGVWKGLFARIIMIGTLTALQWFIYDSVKVYFRLPRPPPPEMPESLKKKLGLTE
B5: NADH dehydrogenase [ubiquinone] 1 α subcomplex subunit 5 (mouse) (protein, UniProt Q9CPP6 1-116)
chain: MAGLLKKTTGLVGLAVCDTPHERLTILYTKTLDILKHFPKHAAYRKYTEQITNEKLDMVKAEPDVKKLEALLQGGEVEEVILQAEKELSLARKMLKWKPWEPLVEEPPANQWKWPI
B6: Complement C1q subcomponent subunit A (mouse) (protein, UniProt P98086 23-245)
chain: EDVCRAPNGKDGAPGNPGRPGRPGLKGERGEPGAAGIRTGIRGFKGDPGESGPPGKPGNVGLPGPSGPLGDSGPQGLKGVKGNPGNIRDQPRPAFSAIRQNPMTLGNVVIFDKVLTNQESPYQNHTGRFICAVPGFYYFNFQVISKWDLCLFIKSSSGGQPRDSLSFSNTNNKGLFQVLAGGTVLQLRRGDEVWIEKDPAKGRIYQGTEADSIFSGFLIFPSA
B7: ADP/ATP translocase 1 (mouse) (protein, UniProt P48962 1-298)
chain: MGDQALSFLKDFLAGGIAAAVSKTAVAPIERVKLLLQVQHASKQISAEKQYKGIIDCVVRIPKEQGFLSFWRGNLANVIRYFPTQALNFAFKDKYKQIFLGGVDRHKQFWRYFAGNLASGGAAGATSLCFVYPLDFARTRLAADVGKGSSQREFNGLGDCLTKIFKSDGLKGLYQGFSVSVQGIIIYRAAYFGVYDTAKGMLPDPKNVHIIVSWMIAQSVTAVAGLVSYPFDTVRRRMMMQSGRKGADIMYTGTLDCWRKIAKDEGANAFFKGAWSNVLRGMGGAFVLVLYDEIKKYV
B8: NADH dehydrogenase [ubiquinone] 1 subunit C2 (mouse) (protein, UniProt Q9CQ54 1-120)
chain: MMNGRPGHEPLKFLPDEARSLPPPKLNDPRLVYMGLLGYCTGLMDNMLRMRPVMRAGLHRQLLFVTSFVFAGYFYLKRQNYLYAVKDHDMFGYIKLHPEDFPEKEKKTYAEILEPFHPVR
B9: ATP synthase subunit delta, mito (mouse) (protein, UniProt Q9D3D9 23-168)
chain: AEAAAAPAPAAGPGQMSFTFASPTQVFFDSANVKQVDVPTLTGAFGILASHVPTLQVLRPGLVVVHTEDGTTTKYFVSSGSVTVNADSSVQLLAEEAVTLDMLDLGAARANLEKAQSELSGAADEAARAEIQIRIEANEALVKALE
B10: NADH dehydrogenase [ubiquinone] 1 β subcomplex subunit 9 (mouse) (protein, UniProt Q9CQJ8 1-179)
chain: MAFCAPPAYLTHQQKVLRLYKRALRHLESWCIHRDKYRYFACLMRARFEEHKNEKDMMRATQLLREAEEEFWQNQHPQPYIFPDSPGGTSFERYECYKVPEWCLDYWHPSEKAMYPDYFSKREQWKKLRMESWDREVKQLQEETSPDGIMTEALPPARREGDLPPLWWHIVTRPRERPT
B11: ATP synthase subunit b, mito (mouse) (protein, UniProt Q9CQQ7 43-256)
chain: PLPPLPEYGGKVRLGLIPEEFFQFLYPKTGVTGPYVLGTGLSLYFLSKEIYVITPETFSTISVVGLIVYVIKKYGASFGEFIDKLNEEKIAQLEEVKQSSMKQIQDAIDMEKAQQALVQKRHYLFDVQRNNIALALEVTYRERLHKAYKEVKNRLDYHISVQNMMRRKEEEHMIDWVEKHVVKSISVQQEKETIAKCIEDLKLLAKKAQAQPIM
B12: α-Internexin (mouse) (protein, UniProt P46660 1-501)
chain: MSFGSEHYLCSASSYRKVFGDSSRLSARLSGPGGSGSFRSQSLSRSNVASTAACSSASSLGLGLAYRRLPASDGLDLSQAAARTNEYKIIRTNEKEQLQGLNDRFAVFIEKVHQLETQNRALEAELAALRQRHAEPSRVGELFQRELRELRAQLEEASSARAQALLERDGLAEEVQRLRARCEEESRGREGAERALKAQQRDVDGATLARLDLEKKVESLLDELAFVRQVHDEEVAELLATLQASSQAAAEVDVAVAKPDLTSALREIRAQYESLAAKNLQSAEEWYKSKFANLNEQAARSTEAIRASREEIHEYRRQLQARTIEIEGLRGANESLERQILELEERHSAEVAGYQDSIGQLESDLRNTKSEMARHLREYQDLLNVKMALDIEIAAYRKLLEGEETRFSTGGLSISGLNPLPNPSYLLPPRILSSTASKVSSAGLSLKKEEEEEEEEASKEVSKKTSKVGEGFEETLGEAVISTKKTGKSATEESTSSSQKM
B13: NADH dehydrogenase [ubiquinone] iron-sulfur protein 5 (mouse) (protein, UniProt Q99LY9 1-106)
chain: MPFLDIQKKLGISLDRHFMFLSAEQPYKNAARCHAFEKEWIECAHGIGGTRAKKECKIEFDDFEECLLRYKTMRRMHDIKKQREKLMKEGKYTPPPHHSGREEPRP
B14: ATP synthase subunit e, mito (mouse) (protein, UniProt Q06185 1-71)
chain: MVPPVQVSPLIKFGRYSALIIGMAYGAKRYSYLKPRAEEERRIAAEEKKRLDELKRIERELAEAQDDSILK
B15: 2',3'-cyclic-nucleotide 3'-phosphodiesterase (mouse) (protein, UniProt P16330 1-420)
chain: MNTSFTRKSHTFLPKLFFRKMSSSGAKEKPELQFPFLQDEDTVATLHECKTLFILRGLPGSGKSTLARLILEKYHDGTKMVSADAYKIIPGSRADFSEAYKRLDEDLAGYCRRDIRVLVLDDTNHERERLDQLFEMADQYQYQVVLVEPKTAWRLDCAQLKEKNQWQLSADDLKKLKPGLEKDFLPLYFGWFLTKKSSETLRKAGQVFLEELGNHKAFKKELRHFISGDEPKEKLELVSYFGKRPPGVLHCTTKFCDYGKAAGAEEYAQQEVVKRSYGKAFKLSISALFVTPKTAGAQVVLTDQELQLWPSDLDKPSASEGLPPGSRAHVTLGCAADVQPVQTGLDLLDILQQVKGGSQGEAVGELPRGKLYSLGKGRWMLSLTKKMEVKAIFTGYYGKGKPVPIHGSRKGGAMQICTII
B16: NADH dehydrogenase [ubiquinone] 1 α subcomplex subunit 10, mito (mouse) (protein, UniProt Q99LC3 36-355)
chain: LRYGLLAAILGDKTTKKLHEYSRVITVDGNICSGKNKLAKEIAQQLGMKHYPEAGIQYSSTTTGDGRPLDIEFSGSCSLEKFYDDPKSNDGNSYRLQSWLYASRLLQYADALEHLLSTGQGVVLERSIYSDFVFLEAMYNQGYIRKQCVDHYNEIKRLTLPEYLPPHAVIYIDVPVPEVQSRIQKKGDPHEMKVTSAYLQDIENAYKKTFLPKMSEMCEVLVYDSWEAEDPTKVVEDIEYLKYNKGPWLKQDDWTFHYLRMLVQDKTEVLNYTTIPVYLPEITIGAHQGSRIYNSFRELPGRKYAPGYNAEVGDKWIWLK
B17: NADH dehydrogenase [ubiquinone] 1 β subcomplex subunit 7 (mouse) (protein, UniProt Q9CR61 1-137)
chain: MGAHLTRRYLWDASVEPDPEKIPSFPPDLGFPERKERVMVATQQEMMDAQLTLQQRDYCAHYLIRLLKCKRDSFPNFLACKHEQHDWDYCEHLDYVKRMKEFERERRLLQRKKRRALKEARVAQGQGEGEVGPEVAL
B18: ADP/ATP translocase 2 (mouse) (protein, UniProt P51881 1-298)
chain: MTDAAVSFAKDFLAGGVAAAISKTAVAPIERVKLLLQVQHASKQITADKQYKGIIDCVVRIPKEQGVLSFWRGNLANVIRYFPTQALNFAFKDKYKQIFLGGVDKRTQFWRYFAGNLASGGAAGATSLCFVYPLDFARTRLAADVGKAGAEREFKGLGDCLVKIYKSDGIKGLYQGFNVSVQGIIIYRAAYFGIYDTAKGMLPDPKNTHIFISWMIAQSVTAVAGLTSYPFDTVRRRMMMQSGRKGTDIMYTGTLDCWRKIARDEGSKAFFKGAWSNVLRGMGGAFVLVLYDEIKKYT
B19: NADH dehydrogenase [ubiquinone] 1 β subcomplex subunit 4 (mouse) (protein, UniProt Q9CQC7 1-129)
chain: MSGSKYKPAPLATLPSTLDPAEYDVSPETRRAQVERLSIRARLKREYLLQYNDPKRVSHIEDPALIRWTYARSANIYPNFRPTPKNSLLGAVAGFGPLIFWYYVFKTDRDRKERLIQEGKLDRKFNISY

Biological target: Neuronal acetylcholine receptor subunit β2 (mouse) (mouse (endogenous in cortex)) (UniProt Q9ERK7)
Test: affinity purification with mass spectrometry; β2*-nAChRs captured on mAb295-coupled M270 Dynabeads from a Triton X-100 extract of pooled mouse cortex membranes after DSP cross-linking; eight-plex iTRAQ LC-MS/MS; β2+/+, β2+/-, α4+/-β2+/- and β2-/- mice given saline or nicotine (4 mg/kg/h, 10 d); proteins found in both biological replicates

binding, binds:
B1, B2, B3, B4, B5, B6, B7, B8, B9, B10, B11, B12, B13, B14, B15, B16, B17, B18, B19
